Results: article PMC10936776, “Structural and functional characterization of AfsR, an SARP family transcriptional activator of antibiotic biosynthesis in Streptomyces” (PLOS Biology, 2024)
For part of these data: A weaker result is weaker than the reference pair of the same experiment. Tags and fusion partners may be left off the protein sequences shown. For part of these data: The exact form of at least one protein or probe is not confirmed. For part of these data: At least one verdict was read from the data and is not stated in words by the source.

How the values were obtained:
[1] = molecular target: T1, AfsR, dephosphorylated (Streptomyces coelicolor M145) (UniProt P25941); test: fluorescence polarization; settings: no ATP; FP: 20 mM HEPES pH 7.5, 100 mM NaCl, 5 mM MgCl2, 2 mM DTT, 5% glycerol, 0.1 ug/ml poly(dI-dC), 10 nM DNA, 30 C, 20 min; recombinant protein; residues 1-993; protein details: pET28a His tag (Ni-NTA); label: 5'-FAM
T1 sequence (looked up): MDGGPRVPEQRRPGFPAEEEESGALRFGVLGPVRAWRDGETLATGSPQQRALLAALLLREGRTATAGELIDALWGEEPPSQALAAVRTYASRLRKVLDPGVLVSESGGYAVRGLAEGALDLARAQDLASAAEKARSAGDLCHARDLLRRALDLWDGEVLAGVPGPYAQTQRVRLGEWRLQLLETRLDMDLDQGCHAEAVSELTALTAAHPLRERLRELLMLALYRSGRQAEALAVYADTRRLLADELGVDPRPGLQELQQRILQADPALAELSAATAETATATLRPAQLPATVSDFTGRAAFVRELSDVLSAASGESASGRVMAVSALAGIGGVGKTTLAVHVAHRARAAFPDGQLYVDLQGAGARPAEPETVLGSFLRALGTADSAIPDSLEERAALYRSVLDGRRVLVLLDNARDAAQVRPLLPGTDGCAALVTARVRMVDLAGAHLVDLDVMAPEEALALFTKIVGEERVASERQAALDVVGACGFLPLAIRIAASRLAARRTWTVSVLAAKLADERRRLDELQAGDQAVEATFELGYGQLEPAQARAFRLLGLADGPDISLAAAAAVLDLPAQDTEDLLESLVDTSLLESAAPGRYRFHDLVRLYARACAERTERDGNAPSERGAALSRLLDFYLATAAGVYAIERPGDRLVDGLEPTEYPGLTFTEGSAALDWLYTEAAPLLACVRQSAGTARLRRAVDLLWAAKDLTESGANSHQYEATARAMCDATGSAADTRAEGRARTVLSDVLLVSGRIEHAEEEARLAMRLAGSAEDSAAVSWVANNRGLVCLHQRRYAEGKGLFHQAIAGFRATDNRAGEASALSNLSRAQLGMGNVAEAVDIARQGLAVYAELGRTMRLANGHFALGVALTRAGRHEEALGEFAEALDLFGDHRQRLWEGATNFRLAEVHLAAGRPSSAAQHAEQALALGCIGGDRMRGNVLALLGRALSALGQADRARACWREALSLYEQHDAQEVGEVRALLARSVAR

[2] = molecular target: T2, AfsR SARP domain (Streptomyces coelicolor M145) (UniProt P25941); test: fluorescence polarization; settings: 5 mM Mg2+, poly(dI-dC); FP: 20 mM HEPES pH 7.5, 100 mM NaCl, 5 mM MgCl2, 2 mM DTT, 5% glycerol, 0.1 ug/ml poly(dI-dC), 10 nM DNA, 30 C, 20 min; recombinant protein; residues 1-270; protein details: pET28a His tag (Ni-NTA); label: 5'-FAM
T2 sequence (looked up): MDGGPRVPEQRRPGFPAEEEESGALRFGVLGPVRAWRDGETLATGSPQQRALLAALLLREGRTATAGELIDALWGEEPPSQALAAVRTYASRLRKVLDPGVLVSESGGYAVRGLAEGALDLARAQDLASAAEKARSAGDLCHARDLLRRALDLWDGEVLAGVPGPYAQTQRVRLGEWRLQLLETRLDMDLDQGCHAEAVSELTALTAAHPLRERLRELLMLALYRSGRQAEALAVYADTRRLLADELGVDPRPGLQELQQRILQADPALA

Row | Sequence | binding result [1] | binding result [2]
1 | CGGAGCGTTCAGCGTTCGTTTATCTCCCCCTG (double strand) [afs box (-45 to -14)] | binds | –
2 | GGAGATGGACTCGTTCGTTTATCTCCCCCTGG (double strand) [afs box M1 (upstream DR mutated)] | – | binds more weakly
3 | GGAGCGTTCAGCGTTATGGGCGCTCCCCCTGG (double strand) [afs box M2 (downstream DR mutated)] | – | binds more weakly
